The other results are listed elsewhere or left out. Most entries show no effect beyond the scatter of the controls.

Protein sequences, listed by entry. Tags and fused reporters are not part of them. Lines headed by an entry give the natural chain unless they say otherwise; changes in a name come on top.
UniProt P63104: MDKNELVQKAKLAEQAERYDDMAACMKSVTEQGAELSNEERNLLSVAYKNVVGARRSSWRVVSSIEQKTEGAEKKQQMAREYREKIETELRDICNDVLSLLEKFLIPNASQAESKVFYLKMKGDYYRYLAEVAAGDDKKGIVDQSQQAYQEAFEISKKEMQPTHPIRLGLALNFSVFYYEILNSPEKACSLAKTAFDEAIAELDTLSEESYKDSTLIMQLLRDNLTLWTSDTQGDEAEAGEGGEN
UniProt P62318, whole entry: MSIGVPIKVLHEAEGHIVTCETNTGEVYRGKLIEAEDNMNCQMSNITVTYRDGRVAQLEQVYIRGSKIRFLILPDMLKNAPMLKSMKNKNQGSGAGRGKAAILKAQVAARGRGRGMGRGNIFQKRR
UniProt P69892: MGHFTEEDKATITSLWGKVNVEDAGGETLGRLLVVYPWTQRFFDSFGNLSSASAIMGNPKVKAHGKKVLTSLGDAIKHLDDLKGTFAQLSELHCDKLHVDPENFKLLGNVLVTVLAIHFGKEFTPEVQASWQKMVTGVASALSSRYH
UniProt P56945: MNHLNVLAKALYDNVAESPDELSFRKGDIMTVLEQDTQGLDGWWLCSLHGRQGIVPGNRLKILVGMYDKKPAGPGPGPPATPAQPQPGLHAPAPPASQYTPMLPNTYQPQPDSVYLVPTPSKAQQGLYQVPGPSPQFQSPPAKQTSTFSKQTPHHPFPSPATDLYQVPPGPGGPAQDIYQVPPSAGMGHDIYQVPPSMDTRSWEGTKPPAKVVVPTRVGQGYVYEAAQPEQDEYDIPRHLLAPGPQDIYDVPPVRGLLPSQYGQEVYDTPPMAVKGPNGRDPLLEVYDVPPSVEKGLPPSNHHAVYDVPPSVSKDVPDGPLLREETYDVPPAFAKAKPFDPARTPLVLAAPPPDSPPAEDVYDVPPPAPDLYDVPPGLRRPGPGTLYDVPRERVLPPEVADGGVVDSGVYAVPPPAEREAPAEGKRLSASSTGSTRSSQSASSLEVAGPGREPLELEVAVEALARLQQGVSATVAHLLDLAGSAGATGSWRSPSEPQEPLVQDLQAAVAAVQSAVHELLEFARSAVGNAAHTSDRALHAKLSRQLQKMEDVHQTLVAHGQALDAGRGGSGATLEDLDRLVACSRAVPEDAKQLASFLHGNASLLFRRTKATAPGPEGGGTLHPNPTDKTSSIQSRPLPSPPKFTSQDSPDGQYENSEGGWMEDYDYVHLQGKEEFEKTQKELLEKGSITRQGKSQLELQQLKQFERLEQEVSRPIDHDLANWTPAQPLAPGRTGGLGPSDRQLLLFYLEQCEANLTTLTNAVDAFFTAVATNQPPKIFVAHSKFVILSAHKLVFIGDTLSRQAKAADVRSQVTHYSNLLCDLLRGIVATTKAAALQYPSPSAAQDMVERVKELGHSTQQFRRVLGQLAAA

Compound in the assay: Cc1nc(Nc2ncc(C(=O)Nc3c(C)cccc3Cl)s2)cc(N2CCN(CCO)CC2)n1 [dasatinib]
Nature of the assay: log2 fold change of tryptic peptide abundance, ligand vs vehicle (limited proteolysis) (log2 ratio); higher = more trypsin-susceptible (destabilized). As to conditions: ligand concentration: 5 uM; sample: K562 cleared lysate.
“AK2 (peptide sequence: NLETPLCK, peptide start residue: 86) (UniProt P54819)”: the log2 fold change is -0.145. For the target “YWHAZ (peptide sequence: NLLSVAYKNVVGARR, peptide start residue: 42) (UniProt P63104)”, the log2 fold change worked out at 0.191. As to “UniProt P62847 (peptide sequence: MNDTVTIR, peptide start residue: 1)”, the log2 fold change came to 0.125. Take “UniProt P62318 (peptide sequence: VAQLEQVYIR, peptide start residue: 55)”: the log2 fold change is -0.0684. With “HBG2 (peptide sequence: MVTGVASALSSR, peptide start residue: 134) (UniProt P69892)”, the log2 fold change was 0.0677.

Take “UniProt P61313 (peptide sequence: GATYGKPVHHGVNQLKFAR, peptide start residue: 78)”: the log2 fold change was found to be 0.502. In the case of “BCAR1 (peptide sequence: FVILSAHK, peptide start residue: 784) (UniProt P56945)”, the log2 fold change was found to be 0.196.

The values are drawn from the supplement of paper PMC12819154, “High-throughput peptide-centric local stability assay extends protein–ligand identification to membrane proteins, tissues and bacteria” (Nature Structural & Molecular Biology, 2025).
